In PMC5258789:
No constants are given. Whether binding was seen depends on the method and setting. Binding seen in cells or lysates may run through a third protein. Binding calls can cover weak binding; strength is not graded here.

Molecular target: Gαi protein (human (endogenous in heart tissue))
Assay: co-IP; human heart tissue lysate (50 mM Tris HCl pH 7.4, 150 mM NaCl, 1 mM EDTA, 1% Triton X-100) incubated with antibodies against Gα subunits (2 µg each) overnight at 4 °C in a Catch & Release v2.0 spin column; denaturing elution; western blot for OR51E1; unspecific IgG as control

B1: odorant receptor OR51E1 (receptor, UniProt Q8TCB6 1-318)
chain: MMVDPNGNESSATYFILIGLPGLEEAQFWLAFPLCSLYLIAVLGNLTIIYIVRTEHSLHEPMYIFLCMLSGIDILISTSSMPKMLAIFWFNSTTIQFDACLLQMFAIHSLSGMESTVLLAMAFDRYVAICHPLRHATVLTLPRVTKIGVAAVVRGAALMAPLPVFIKQLPFCRSNILSHSYCLHQDVMKLACDDIRVNVVYGLIVIISAIGLDSLLISFSYLLILKTVLGLTREAQAKAFGTCVSHVCAVFIFYVPFIGLSMVHRFSKRRDSPLPVILANIYLLVPPVLNPIVYGVKTKEIRQRILRLFHVATHASEP
binding: binds weakly
